The list shows a part of the results.
Compound: Cc1ccc(NC(=O)c2ccc(CN3CC[C@H](N(C)C)C3)c(C(F)(F)F)c2)cc1Nc1nccc(-c2cncnc2)n1 [bafetinib]
Experiment: log2 fold change, soluble protein after heating vs DMSO (PISA); higher = thermal stabilisation; K562 lysate, 10 uM; active = over 0.2 and 3.5 SD of the protein, either way, in both replicates (recomputed)
Outline: (§1)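 Soluble protein was defined as the supernatant remaining after 21,000xg for 90 min, following pooling of heated aliquots and adjustment to 0.5% NP-40 at 4°C. Before that, crude K562 extract at 1 mg/mL protein in PBS pH 7.4 with 1 mM MgCl2 was treated with 10 μM compound for 30 min and heated for 3 min across 48°C-58°C. Quantification used TMTpro 16plex LC-MS/MS with channel sums equalised, and values are log-two fold changes in thermal stability relative to solvent controls from duplicates.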

By UniProt entry, the sequences of proteins in these tests, tags left out. Where a name states a change or a piece, a line headed by the entry shows the natural chain unless it says otherwise.
UniProt Q96CD0: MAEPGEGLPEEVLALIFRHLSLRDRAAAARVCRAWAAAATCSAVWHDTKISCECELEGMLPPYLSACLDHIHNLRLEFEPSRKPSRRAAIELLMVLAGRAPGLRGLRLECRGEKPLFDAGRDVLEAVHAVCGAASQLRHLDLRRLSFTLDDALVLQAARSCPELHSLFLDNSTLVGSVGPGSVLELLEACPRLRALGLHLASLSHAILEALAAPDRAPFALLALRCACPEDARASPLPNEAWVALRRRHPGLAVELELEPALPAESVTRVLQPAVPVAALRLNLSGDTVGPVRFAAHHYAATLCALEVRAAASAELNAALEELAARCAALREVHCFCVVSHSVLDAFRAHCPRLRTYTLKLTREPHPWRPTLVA
UniProt P10109: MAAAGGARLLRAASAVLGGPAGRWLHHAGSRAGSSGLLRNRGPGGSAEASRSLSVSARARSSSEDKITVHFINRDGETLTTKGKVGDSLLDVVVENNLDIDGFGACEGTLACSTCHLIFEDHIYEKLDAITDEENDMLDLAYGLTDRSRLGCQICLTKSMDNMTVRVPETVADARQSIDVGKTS
UniProt Q9NVK5: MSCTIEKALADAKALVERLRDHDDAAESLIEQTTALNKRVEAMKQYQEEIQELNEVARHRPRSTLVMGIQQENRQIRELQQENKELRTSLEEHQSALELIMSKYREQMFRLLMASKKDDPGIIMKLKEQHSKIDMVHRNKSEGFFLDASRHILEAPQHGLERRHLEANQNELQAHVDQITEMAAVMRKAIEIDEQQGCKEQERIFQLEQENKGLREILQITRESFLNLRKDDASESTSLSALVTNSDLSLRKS
UniProt Q6ZV73: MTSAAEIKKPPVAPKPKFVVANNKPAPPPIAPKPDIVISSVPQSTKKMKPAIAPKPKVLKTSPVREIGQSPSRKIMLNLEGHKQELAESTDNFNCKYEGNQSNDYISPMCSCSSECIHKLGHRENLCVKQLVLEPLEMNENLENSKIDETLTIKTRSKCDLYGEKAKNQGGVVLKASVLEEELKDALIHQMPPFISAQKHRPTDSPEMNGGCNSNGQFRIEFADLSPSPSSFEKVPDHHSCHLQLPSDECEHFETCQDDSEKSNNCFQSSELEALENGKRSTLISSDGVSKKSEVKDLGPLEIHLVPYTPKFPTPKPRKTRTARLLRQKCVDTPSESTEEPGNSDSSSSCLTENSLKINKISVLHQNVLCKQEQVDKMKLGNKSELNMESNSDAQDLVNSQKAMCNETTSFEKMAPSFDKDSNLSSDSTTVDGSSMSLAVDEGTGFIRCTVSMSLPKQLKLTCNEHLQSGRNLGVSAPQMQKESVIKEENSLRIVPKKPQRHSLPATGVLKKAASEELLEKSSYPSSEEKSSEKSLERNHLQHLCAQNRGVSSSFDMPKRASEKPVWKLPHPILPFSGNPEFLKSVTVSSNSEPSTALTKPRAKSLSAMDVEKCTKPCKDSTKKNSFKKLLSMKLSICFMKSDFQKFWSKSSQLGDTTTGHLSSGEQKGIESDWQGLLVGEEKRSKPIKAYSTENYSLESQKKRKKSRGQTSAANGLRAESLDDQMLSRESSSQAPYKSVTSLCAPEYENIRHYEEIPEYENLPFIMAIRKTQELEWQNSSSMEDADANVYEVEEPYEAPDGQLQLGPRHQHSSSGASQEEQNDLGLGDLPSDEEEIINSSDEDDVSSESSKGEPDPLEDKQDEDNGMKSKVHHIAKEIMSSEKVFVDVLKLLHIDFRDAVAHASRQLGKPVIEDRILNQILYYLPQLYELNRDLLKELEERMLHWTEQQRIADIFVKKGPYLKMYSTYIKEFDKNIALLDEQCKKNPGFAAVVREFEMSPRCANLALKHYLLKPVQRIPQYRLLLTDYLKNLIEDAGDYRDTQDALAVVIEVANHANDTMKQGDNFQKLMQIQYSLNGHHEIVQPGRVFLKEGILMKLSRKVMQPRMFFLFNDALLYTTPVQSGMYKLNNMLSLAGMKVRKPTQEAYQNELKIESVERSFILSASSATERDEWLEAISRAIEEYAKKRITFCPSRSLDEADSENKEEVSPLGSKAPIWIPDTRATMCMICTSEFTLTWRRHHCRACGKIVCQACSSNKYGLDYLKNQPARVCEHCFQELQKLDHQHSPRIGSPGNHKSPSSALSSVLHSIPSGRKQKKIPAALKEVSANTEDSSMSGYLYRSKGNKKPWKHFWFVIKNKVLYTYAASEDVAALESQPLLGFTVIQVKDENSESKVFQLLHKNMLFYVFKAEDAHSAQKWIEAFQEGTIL
UniProt Q13643: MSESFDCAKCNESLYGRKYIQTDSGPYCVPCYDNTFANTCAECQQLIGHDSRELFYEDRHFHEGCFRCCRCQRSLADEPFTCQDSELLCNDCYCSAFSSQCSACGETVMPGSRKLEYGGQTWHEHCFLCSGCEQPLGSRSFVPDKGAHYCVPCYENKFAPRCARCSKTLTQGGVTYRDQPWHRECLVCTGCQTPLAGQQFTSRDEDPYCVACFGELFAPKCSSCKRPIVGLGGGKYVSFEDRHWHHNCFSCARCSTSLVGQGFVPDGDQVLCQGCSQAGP
UniProt Q6P4F2: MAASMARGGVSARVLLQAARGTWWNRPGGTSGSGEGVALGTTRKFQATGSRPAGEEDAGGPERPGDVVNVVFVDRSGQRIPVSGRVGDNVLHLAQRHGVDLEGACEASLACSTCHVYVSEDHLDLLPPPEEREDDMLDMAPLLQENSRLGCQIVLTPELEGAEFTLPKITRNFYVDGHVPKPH
UniProt Q9UKT4: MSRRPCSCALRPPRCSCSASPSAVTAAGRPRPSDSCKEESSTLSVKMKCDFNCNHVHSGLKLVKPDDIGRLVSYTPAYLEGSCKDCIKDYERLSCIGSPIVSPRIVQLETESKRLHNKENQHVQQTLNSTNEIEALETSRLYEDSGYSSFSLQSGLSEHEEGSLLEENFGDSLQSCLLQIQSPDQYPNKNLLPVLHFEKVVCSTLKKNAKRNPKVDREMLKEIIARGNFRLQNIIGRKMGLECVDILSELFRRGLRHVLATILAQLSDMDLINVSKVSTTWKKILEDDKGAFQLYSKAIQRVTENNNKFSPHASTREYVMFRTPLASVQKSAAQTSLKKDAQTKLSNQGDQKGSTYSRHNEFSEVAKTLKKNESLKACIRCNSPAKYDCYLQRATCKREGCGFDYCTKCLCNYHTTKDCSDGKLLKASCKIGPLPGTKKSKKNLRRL
UniProt O75955: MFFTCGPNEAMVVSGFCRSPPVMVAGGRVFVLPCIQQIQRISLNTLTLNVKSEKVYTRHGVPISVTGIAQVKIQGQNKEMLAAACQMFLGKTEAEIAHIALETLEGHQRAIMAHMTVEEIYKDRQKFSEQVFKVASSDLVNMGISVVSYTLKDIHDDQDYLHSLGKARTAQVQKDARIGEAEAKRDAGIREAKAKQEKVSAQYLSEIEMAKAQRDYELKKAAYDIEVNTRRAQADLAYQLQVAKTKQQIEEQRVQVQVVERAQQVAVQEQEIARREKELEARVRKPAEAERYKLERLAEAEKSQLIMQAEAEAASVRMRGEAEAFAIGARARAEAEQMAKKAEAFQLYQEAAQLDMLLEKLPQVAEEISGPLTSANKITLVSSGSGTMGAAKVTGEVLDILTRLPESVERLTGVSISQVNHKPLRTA
UniProt Q9UBU6: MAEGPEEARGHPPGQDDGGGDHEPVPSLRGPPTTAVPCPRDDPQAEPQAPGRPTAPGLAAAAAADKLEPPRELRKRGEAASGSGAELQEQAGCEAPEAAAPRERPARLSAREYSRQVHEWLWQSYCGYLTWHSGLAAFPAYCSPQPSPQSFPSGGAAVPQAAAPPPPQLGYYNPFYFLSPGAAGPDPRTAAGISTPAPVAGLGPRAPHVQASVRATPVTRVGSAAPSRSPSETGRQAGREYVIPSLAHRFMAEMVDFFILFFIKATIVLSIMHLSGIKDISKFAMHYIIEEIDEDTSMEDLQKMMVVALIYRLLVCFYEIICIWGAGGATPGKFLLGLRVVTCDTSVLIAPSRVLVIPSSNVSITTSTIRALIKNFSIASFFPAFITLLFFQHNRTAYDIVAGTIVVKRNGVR
UniProt Q8N3X1: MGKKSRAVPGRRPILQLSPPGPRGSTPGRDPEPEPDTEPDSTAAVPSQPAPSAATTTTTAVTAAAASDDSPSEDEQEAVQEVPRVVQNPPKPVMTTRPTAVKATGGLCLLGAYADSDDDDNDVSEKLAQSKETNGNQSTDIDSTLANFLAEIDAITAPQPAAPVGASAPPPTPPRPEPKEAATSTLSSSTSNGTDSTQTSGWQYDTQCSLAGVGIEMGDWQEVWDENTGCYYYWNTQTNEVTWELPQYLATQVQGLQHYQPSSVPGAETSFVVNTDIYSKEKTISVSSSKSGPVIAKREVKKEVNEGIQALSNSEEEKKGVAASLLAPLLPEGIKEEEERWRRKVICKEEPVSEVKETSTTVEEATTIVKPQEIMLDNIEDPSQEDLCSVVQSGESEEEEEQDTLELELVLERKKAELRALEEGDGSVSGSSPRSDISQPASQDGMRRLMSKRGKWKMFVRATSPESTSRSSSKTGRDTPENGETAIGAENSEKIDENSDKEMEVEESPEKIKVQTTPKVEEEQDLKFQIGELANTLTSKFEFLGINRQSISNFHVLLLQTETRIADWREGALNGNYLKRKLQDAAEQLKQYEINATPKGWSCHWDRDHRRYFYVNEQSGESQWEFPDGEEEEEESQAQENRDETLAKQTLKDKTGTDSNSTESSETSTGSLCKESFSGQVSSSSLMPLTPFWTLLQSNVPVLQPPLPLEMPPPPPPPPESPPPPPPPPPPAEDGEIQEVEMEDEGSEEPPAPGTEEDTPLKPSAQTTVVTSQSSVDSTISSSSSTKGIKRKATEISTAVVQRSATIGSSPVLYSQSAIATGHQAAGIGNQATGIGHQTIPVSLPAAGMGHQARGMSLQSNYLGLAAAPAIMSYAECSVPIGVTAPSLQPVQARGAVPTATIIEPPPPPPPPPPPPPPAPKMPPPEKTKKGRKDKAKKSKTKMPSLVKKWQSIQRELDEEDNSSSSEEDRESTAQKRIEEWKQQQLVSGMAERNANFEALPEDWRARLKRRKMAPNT
UniProt O14526: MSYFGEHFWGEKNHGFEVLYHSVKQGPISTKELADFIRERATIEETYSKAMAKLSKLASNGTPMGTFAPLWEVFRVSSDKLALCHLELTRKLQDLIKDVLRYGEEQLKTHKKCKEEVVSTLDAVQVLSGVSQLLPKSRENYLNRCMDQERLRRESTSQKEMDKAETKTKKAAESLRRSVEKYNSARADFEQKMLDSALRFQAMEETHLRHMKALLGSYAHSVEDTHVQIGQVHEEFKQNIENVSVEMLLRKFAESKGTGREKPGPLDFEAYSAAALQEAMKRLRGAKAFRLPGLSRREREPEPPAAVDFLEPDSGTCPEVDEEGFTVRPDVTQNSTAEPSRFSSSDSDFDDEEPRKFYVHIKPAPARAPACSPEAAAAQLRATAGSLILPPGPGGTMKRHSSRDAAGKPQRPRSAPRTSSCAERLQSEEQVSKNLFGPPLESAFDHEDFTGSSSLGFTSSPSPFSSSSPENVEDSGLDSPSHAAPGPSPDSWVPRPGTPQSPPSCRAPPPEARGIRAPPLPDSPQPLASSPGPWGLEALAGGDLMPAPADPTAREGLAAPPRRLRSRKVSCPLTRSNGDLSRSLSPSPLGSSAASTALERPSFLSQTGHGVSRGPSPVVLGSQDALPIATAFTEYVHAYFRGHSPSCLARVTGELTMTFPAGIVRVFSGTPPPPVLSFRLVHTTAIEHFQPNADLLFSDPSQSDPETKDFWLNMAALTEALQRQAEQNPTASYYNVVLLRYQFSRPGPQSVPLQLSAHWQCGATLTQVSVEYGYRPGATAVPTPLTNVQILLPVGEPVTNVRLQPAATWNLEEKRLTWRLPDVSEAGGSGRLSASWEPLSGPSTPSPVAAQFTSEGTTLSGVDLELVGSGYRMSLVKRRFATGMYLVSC
UniProt Q96CP2: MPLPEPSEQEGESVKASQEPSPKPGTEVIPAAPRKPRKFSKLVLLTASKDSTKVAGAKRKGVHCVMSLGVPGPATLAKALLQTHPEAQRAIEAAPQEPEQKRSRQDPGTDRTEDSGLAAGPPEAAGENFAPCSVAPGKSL

log2 fold change, inactive:
FN3K (UniProt Q9H479) 0.027
FBXL8 (UniProt Q96CD0) -0.134
FARSA (UniProt Q9Y285) -0.075
FKBP2 (UniProt P26885) 0.161
FDX1 (UniProt P10109) -0.051
FGFR1OP2 (UniProt Q9NVK5) -0.052
FKBP7 (UniProt Q9Y680) 0.171
FGD6 (UniProt Q6ZV73) 0.254
FECH isoform 2 (UniProt P22830) 0.557
FBXW11 (UniProt Q9UKB1) -0.09
FANCI (UniProt Q9NVI1) -0.032
FBXO7 (UniProt Q9Y3I1) -0.015
FHL3 (UniProt Q13643) 0.104
FDX2 (UniProt Q6P4F2) 0
FNTB (UniProt P49356) -0.013
FBXO5 (UniProt Q9UKT4) 0.025
FMNL1 isoform 3 (UniProt O95466) -0.055
FLOT1 (UniProt O75955) 0.002
FGGY isoform 3 (UniProt Q96C11) -0.006
FEM1B (UniProt Q9UK73) -0.214
FNTA (UniProt P49354) -0.011
FBXO3 (UniProt Q9UK99) -0.003
FAM8A1 (UniProt Q9UBU6) 0.055
FDFT1 (UniProt P37268) 0.018
FMR1 (UniProt Q06787) -0.037
FNBP4 isoform 2 (UniProt Q8N3X1) 0.004
FLII (UniProt Q13045) -0.032
FEN1 (UniProt P39748) -0.011
FCHO1 (UniProt O14526) -0.141
FBXL12 (UniProt Q9NXK8) -0.003
FBXO2 (UniProt Q9UK22) 0.036
FLYWCH2 (UniProt Q96CP2) 0.038
FNIP1 isoform 3 (UniProt Q8TF40) 0.002

Compound: Cc1cccc(CC(=O)N2CCc3c2ccc(-c2cn(C)c4ncnc(N)c24)c3F)n1
Experiment: as above
Outline: as §1

log2 fold change, inactive:
FN3K (UniProt Q9H479) -0.059
FBXL8 (UniProt Q96CD0) 0.021
FARSA (UniProt Q9Y285) -0.047
FKBP2 (UniProt P26885) -0.048
FDX1 (UniProt P10109) 0.046
FGFR1OP2 (UniProt Q9NVK5) 0.002
FKBP7 (UniProt Q9Y680) -0.028
FGD6 (UniProt Q6ZV73) 0.142
FECH isoform 2 (UniProt P22830) -0.036
FBXW11 (UniProt Q9UKB1) -0.296
FANCI (UniProt Q9NVI1) -0.011
FBXO7 (UniProt Q9Y3I1) 0.015
FHL3 (UniProt Q13643) -0.044
FDX2 (UniProt Q6P4F2) 0.112
FNTB (UniProt P49356) 0.015
FBXO5 (UniProt Q9UKT4) -0.002
FMNL1 isoform 3 (UniProt O95466) 0.042
FLOT1 (UniProt O75955) 0.007
FGGY isoform 3 (UniProt Q96C11) -0.139
FEM1B (UniProt Q9UK73) 0.122
FNTA (UniProt P49354) 0
FBXO3 (UniProt Q9UK99) 0.007
FAM8A1 (UniProt Q9UBU6) 0.082
FDFT1 (UniProt P37268) 0.01
FMR1 (UniProt Q06787) 0.134
FNBP4 isoform 2 (UniProt Q8N3X1) -0.001
FLII (UniProt Q13045) 0.003
FEN1 (UniProt P39748) 0.004
FCHO1 (UniProt O14526) 0.058
FBXL12 (UniProt Q9NXK8) 0.009
FBXO2 (UniProt Q9UK22) 0.458
FLYWCH2 (UniProt Q96CP2) -0.038
FNIP1 isoform 3 (UniProt Q8TF40) 0.06

Reference: the supplement of paper PMC10849652
